According to US20040022788A1, “Compositions and methods for promoting or inhibiting angiogenesis” (priority 1998, published 2004):

Test system: HUVEC
Test: Direct binding of 125I-labeled plasminogen or angiostatin to endothelial cells, Scatchard analysis
Design: species or system human
Conditions: 125I-labeled ligand
Description: FIGS. 1A and 1B. Direct binding assay and Scatchard analysis of plasminogen and angiostatin with endothelial cells. HUVEC were plated at a density of 10,000 cells/well and incubated with increasing concentrations of ^125I-labeled-plasminogen or angiostatin. FIG. 1A. ^125I-labeled plasminogen binding was concentration-dependent and saturable with an apparent dissociation constant ([…]) of 158 nM and 870,000 sites/cell. FIG. 1B. […] Error bars represent standard deviation.
Binding Assays. Ligands were radioiodinated by using Iodobeads (Pierce), repurified on L-lysine-Sepharose, eluted with 100 mM ε-aminocaproic acid, and dialyzed in PBS, pH 7.0 before use in binding assays. HUVEC were plated at a density of 5,000 or 10,000 cells/well and incubated with increasing concentrations of ^125I-labeled ligand in media containing 1% BSA for 1 h at 4° C. in 96-well plates. Wells were washed, and remaining bound radioactivity was quantified by using an LKB 1272 γ-radiation counter. Nonspecific binding was measured in the presence of excess unlabeled ligand.

Substance: angiostatin
- binding sites per cell: 38,000 sites/cell
- binding sites per cell (listed as Angiostatin): approximately 38,000 sites/cell
